Measurements published in PMC10630886, “Downregulation of stromal syntenin sustains AML development” (EMBO Molecular Medicine, 2023).
No constants are given. Whether binding was seen depends on the method and setting. In cells and extracts the contact can be indirect. Some entries that bind do so weakly or less than the wild type.

Chains of the proteins cited; added tags and fusions are not shown.
UniProt O00560: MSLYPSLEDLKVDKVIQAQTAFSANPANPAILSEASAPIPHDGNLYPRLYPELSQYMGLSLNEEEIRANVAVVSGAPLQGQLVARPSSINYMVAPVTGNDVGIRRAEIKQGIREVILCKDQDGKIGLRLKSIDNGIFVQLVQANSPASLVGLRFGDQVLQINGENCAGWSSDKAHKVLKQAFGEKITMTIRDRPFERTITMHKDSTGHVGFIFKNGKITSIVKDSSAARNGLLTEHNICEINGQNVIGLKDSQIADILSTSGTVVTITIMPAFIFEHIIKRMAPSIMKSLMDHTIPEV

Molecular target: T1, endogenous endoglin (human (endogenous in HS5)) (UniProt P17813)
T1 sequence: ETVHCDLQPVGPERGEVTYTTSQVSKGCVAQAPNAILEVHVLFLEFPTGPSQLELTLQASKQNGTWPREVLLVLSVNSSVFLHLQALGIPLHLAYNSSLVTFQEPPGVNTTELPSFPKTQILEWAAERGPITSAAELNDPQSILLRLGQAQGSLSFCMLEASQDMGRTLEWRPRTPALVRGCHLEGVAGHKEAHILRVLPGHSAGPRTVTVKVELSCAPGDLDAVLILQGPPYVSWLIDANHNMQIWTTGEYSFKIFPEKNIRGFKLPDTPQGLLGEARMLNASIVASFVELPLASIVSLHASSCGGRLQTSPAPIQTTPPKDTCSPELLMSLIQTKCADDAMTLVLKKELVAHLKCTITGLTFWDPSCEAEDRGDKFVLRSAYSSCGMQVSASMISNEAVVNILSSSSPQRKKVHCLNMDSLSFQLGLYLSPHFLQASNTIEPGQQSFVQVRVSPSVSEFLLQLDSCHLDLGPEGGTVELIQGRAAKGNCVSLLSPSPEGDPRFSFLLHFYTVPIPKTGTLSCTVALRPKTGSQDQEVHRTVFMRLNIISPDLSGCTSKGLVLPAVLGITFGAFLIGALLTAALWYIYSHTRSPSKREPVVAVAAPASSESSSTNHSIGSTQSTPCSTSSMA
Assay: proximity ligation; in situ Duolink PLA with syntenin and endoglin antibodies on fixed, permeabilised HS5 cells; endogenous proteins

endogenous syntenin (from UniProt O00560 1-298)
binding: binds
